Assay [1] has as its target phospholipase D2, wild type (PLD2^wt) (Homo sapiens) (UniProt O14939). The experiment in a line: method not described.
Assay [2] has as its target HA-raptor^wt (human) (UniProt Q8N122). The experiment in a line: co-IP with anti-HA antibody from COS7 lysates, CHAPS lysis (FIG. 13).

Chains of the proteins cited; added tags and fusions are not shown. Lines headed by an entry give the natural chain unless they say otherwise; changes in a name come on top.
UniProt O14939: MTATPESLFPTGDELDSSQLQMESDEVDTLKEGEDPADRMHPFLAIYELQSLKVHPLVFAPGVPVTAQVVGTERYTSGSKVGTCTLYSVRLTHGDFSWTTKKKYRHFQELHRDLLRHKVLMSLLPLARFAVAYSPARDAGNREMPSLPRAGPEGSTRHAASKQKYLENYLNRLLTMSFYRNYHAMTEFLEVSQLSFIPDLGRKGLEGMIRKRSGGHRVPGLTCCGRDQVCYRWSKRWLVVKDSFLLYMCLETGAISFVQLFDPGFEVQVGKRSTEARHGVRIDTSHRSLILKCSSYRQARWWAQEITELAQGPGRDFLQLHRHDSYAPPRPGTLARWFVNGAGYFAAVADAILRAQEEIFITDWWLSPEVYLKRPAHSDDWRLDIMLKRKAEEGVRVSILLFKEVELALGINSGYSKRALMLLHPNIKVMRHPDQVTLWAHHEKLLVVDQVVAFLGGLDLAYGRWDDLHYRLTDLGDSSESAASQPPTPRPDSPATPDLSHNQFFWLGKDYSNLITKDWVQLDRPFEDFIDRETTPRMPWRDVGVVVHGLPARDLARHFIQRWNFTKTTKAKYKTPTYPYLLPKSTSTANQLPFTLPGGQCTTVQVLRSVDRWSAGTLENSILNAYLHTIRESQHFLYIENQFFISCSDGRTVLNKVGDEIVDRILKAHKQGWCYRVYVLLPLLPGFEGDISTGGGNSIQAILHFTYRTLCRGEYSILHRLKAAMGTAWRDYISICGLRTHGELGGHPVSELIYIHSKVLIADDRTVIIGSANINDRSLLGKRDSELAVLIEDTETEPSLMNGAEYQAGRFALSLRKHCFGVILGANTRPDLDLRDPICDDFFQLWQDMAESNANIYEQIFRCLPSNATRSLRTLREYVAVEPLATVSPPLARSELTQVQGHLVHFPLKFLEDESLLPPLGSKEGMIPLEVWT

No constants are given. Whether binding was seen depends on the method and setting. For some assays here: Binding seen in cells or lysates may run through a third protein. Some results given as binding are weak or reduced against the parent protein; the word gives no strength.

Data on 2 substances can be found in patent US20100184636A1.

For the substance Rheb (from UniProt Q15382 1-184), the binding result in assay [1] is “binds”. In the case of “myc-S6K1 (from UniProt P23443 1-502) (enzyme)”, the binding entry in assay [2] is reported as “binds”.
